Values from PubChem BioAssay AID1259308 (NCATS, 2017).
The deposit covers about 59,000 reagents; below is a random part of them. In the full data, about 1,510 (2.6%) are marked active. 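Calls use total luciferase alone and ignore viability, so some active siRNAs may act by altering cell number.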 Reagents against one gene are numbered here. Further read-outs or replicates are left out here.

- Screen: 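Knock-downs that increase output of a recombinant reporter protein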 (primary screen)
- Cell system: human HEK293 embryonic kidney cells stably expressing firefly luciferase (HEK-CMV-Luc2-Hygro)
- Reagent: single siRNA against human genes, 0.8 pmol siRNA per well
- Duration: 72 h
- Measurement: 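Luciferase light (ONE-Glo) measured on one replicate plate set and viability (CellTiter-Glo) on the other, scaled to a negative control siRNA, with robust z-scores and luciferase per cell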
- Direction: total luciferase, z-score: higher = more reporter protein produced
- Call rule: 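An siRNA counts as active if its total luciferase robust z-score exceeds 3; genes with two or more such siRNAs out of three were retested with fresh siRNAs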
- Meaning of the calls: active = raised luciferase; inactive = no rise

The opening 2 records, to show the layout:
CPNE5 #1
- total luciferase, z-score: 0.679
- Outcome: inactive

CPNE5 #2
- total luciferase, z-score: -0.632
- Outcome: inactive

The listing, repeating the preview:
CPNE5 #1
- total luciferase, z-score: 0.679
- Outcome: inactive

CPNE5 #2
- total luciferase, z-score: -0.632
- Outcome: inactive

CPNE5 #3
- total luciferase, z-score: 0.479
- Outcome: inactive

KRT17 #1
- total luciferase, z-score: 0.46
- Outcome: inactive

KRT17 #2
- total luciferase, z-score: -0.784
- Outcome: inactive

KRT17 #3
- total luciferase, z-score: -1.05
- Outcome: inactive

BCOR #1
- total luciferase, z-score: 1.27
- Outcome: inactive

BCOR #2
- total luciferase, z-score: 1.76
- Outcome: inactive

BCOR #3
- total luciferase, z-score: 0.226
- Outcome: inactive

AGRN #1
- total luciferase, z-score: -0.402
- Outcome: inactive

AGRN #2
- total luciferase, z-score: -1.98
- Outcome: inactive

AGRN #3
- total luciferase, z-score: -1.23
- Outcome: inactive
